No constants are given. Whether binding was seen depends on the method and setting. Some entries that bind do so weakly or less than the wild type.
Target: recombinant human miniplasminogen (human) (UniProt P00747)
Experiment: incubation in culture supernatant, complex read out by amidolytic activity on chromogenic substrate S2403

By UniProt entry, the sequences of proteins in these tests, tags left out. Where a name states a change or a piece, a line headed by the entry shows the natural chain unless it says otherwise. Residues count along the entry.
UniProt P00747: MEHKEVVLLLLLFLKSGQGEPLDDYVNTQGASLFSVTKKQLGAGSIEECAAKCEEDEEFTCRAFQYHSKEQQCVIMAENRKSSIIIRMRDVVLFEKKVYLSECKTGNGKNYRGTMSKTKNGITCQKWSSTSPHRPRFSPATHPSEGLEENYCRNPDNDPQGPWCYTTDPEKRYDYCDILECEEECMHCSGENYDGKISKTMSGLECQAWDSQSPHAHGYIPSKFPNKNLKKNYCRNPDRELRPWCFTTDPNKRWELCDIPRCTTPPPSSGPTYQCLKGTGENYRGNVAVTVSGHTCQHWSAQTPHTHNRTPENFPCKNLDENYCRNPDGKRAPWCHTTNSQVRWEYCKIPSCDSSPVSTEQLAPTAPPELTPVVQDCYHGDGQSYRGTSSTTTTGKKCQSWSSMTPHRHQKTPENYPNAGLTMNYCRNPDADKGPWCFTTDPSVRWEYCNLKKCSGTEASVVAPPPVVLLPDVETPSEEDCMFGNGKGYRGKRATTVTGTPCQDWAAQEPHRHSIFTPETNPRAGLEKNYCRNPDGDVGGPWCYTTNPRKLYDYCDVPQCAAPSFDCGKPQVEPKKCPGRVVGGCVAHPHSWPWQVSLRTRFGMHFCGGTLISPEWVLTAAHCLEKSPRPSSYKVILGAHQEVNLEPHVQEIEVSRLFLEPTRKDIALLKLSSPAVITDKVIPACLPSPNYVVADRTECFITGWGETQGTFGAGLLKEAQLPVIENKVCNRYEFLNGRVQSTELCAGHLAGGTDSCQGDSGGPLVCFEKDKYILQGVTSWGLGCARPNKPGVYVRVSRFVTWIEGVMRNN
UniProt P00779, residues 27-440: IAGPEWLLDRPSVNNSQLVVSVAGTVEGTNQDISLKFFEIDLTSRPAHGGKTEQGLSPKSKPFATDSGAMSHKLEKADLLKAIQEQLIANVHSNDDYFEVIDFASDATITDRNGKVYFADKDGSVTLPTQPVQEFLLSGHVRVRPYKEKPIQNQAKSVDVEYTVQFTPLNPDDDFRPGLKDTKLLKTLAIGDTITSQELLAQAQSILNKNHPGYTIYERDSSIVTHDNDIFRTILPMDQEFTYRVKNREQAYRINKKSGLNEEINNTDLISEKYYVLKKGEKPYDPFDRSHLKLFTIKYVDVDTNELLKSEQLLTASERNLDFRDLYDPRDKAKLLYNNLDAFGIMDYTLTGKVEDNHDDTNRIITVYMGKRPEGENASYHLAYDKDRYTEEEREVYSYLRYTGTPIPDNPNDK

streptokinase (from UniProt P00779 27-440)
binding: binds
